The text below walks through data of publication doi:10.1101/2020.03.04.976555.

For the experiment, the target named is STK32A kinase domain (residues P9-D390), unphosphorylated (human) (UniProt Q8WU08). Put plainly: SEC.

Results are given in words; binding and its absence hold for the method and conditions named.

B1: STK32A kinase domain (residues P9-D390), unphosphorylated (enzyme, UniProt Q8WU08-1 9-390)
chain: PPVFDENEDVNFDHFEILRAIGKGSFGKVCIVQKNDTKKMYAMKYMNKQKCVERNEVRNVFKELQIMQGLEHPFLVNLWYSFQDEEDMFMVVDLLLGGDLRYHLQQNVHFKEETVKLFICELVMALDYLQNQRIIHRDMKPDNILLDEHGHVHITDFNIAAMLPRETQITTMAGTKPYMAPEMFSSRKGAGYSFAVDWWSLGVTAYELLRGRRPYHIRSSTSSKEIVHTFETTVVTYPSAWSQEMVSLLKKLLEPNPDQRFSQLSDVQNFPYMNDINWDAVFQKRLIPGFIPNKGRLNCDPTFELEEMILESKPLHKKKKRLAKKEKDMRKCDSSQTCLLQEHLDSVQKEFIIFNREKVNRDFNKRQPNLALEQTKDPQGED
In the case of B1, the binding result is recorded as “no binding”.
